The source of these data is publication PMC10864410, “The pathogen-encoded signalling receptor Tir exploits host-like intrinsic disorder for infection” (Communications Biology, 2024).

Amino acid sequences for entries named in this document (tags omitted). Residues count along the entry.
SBB-Tir, small beta-barrel construct of Tir (N-Tir 76-180) of EPEC O127:H6 (B7UM99, residues 76-180): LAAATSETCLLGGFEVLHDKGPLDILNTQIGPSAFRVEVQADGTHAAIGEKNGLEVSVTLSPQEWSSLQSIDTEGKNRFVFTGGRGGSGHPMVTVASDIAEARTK
UniProt B7UM99, residues 388-550: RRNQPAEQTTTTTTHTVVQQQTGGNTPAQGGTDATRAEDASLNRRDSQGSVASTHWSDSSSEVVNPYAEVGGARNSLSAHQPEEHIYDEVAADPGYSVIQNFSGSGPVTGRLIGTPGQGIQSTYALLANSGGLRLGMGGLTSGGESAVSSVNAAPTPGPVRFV

These are yes or no findings as the source states them, for the method shown.

Experiment [1] deals with C-Tir, C-terminal cytosolic region of Tir of EPEC O127:H6, residues 388-550, unphosphorylated (Enteropathogenic E. coli (EPEC) O127:H6) (UniProt B7UM99). The experiment in a line: SEC-SAXS; analytical SEC with SAXS, BM29 beamline, Superdex 200 Increase 3.2/300; 20 mM phosphate pH 6.5, 150 mM NaCl, 1 mM EDTA; monomeric single-peak region; both purified.
The target of experiment [2] is SBB-Tir, small beta-barrel construct of Tir (N-Tir 76-180) of EPEC O127:H6 (Enteropathogenic E. coli (EPEC) O127:H6) (UniProt B7UM99). Put plainly: SEC-SAXS; synchrotron SEC-SAXS of SBB-Tir; molecular weight of a monomer, in line with the gel filtration retention volume; conditions for this construct not told; both purified.

Consider “C-Tir, C-terminal cytosolic region of Tir of EPEC O127:H6, residues 388-550, unphosphorylated (from UniProt B7UM99 388-550) (domain or fragment)”, for which the binding result in experiment [1] is recorded as “no binding”.

In the case of “SBB-Tir, small beta-barrel construct of Tir (N-Tir 76-180) of EPEC O127:H6 (from UniProt B7UM99 76-180) (domain or fragment)”, the binding result in experiment [2] was “no binding”.
